Test results as given in patent US8084644B2, “Iminopropene compound and use thereof” (Sumitomo Chemical Company, Limited, priority 2005, dated 2011).
Some results were stated once for a whole list of compounds, not compound by compound. Some ranges recur; such a range may be that of the whole group of compounds.

Columns and labels:
Type in all cases: in vivo
[1] = test system: Spodoptela litura; experiment: Test Example 1: artificial diet test on tobacco cutworm larvae; conditions: 500 ppm, fourth-instar larvae, after 6 days
[2] = test system: Adoxophyes orana; experiment: Test Example 2: artificial diet test on summer fruit tortrix larvae; conditions: 500 ppm, first-instar larvae, after 7 days
[3] = test system: Aphis gossypii; experiment: Test Example 3: spray test on cotton aphids on cucumber; conditions: 500 ppm, first-instar larvae on cucumber, after 6 days
[4] = test system: Musca domestica; experiment: Test Example 5: filter paper test on houseflies; conditions: 500 ppm, female adult houseflies, after 24 hours
[5] = test system: Blattalla germanica; experiment: Test Example 6: filter paper test on German cockroach; conditions: 500 ppm, male adult German cockroach, after 6 days
[6] = test system: Culex pipiens pallens; experiment: Test Example 7: water treatment test on common mosquito larvae; conditions: concentration of active ingredient 3.5 ppm in water; last-instar larvae; after one day
[7] = test system: Plutella xylostella; experiment: Test Example 9: cabbage test on diamondback, second-instar; conditions: 500 ppm, 25° C., after five days
[8] = test system: Bemisia argentifolii; experiment: Test Example 10: spray test on silver leaf white fly on cabbage; conditions: after seven days
[9] = test system: Nilaparvata lugens; experiment: Test Example 4: spray test on brown rice planthopper on rice; conditions: 500 ppm, first to second-instar larvae on rice, after 6 days

Row | Compound | index number (mortality) [1] | index number (mortality) [2] | index number (surviving rate based on untreated check) [3] | index number (mortality) [4] | index number (mortality) [5] | index number (mortality) [6] | index number (mortality) [7] | index number (mortality) ([8]; 200 ppm) | index number (surviving rate based on untreated check) [9] | index number (mortality) ([8]; 12.5 ppm) | index number (mortality) ([8]; 50 ppm)
1 | Clc1ccc(N=C(C=CSc2ccccc2)Oc2ccccc2)cc1 [(41), Phenyl N-(4-chlorophenyl)-3-(phenylthio)acrylimidate] | 3 (mortality 80 to 99%) | 3 (mortality 80 to 99%) | 3 (surviving rate 1 to 10%) | 3 (mortality 70 to 99%) | 4 (mortality 100%) | 4 (mortality 91 to 100%) | 3 (mortality 80 to 99%) | 3 (mortality 90 to 99%) |  |  | 
2 | Clc1ccc(N=C(C=COc2ccccc2)Oc2ccccc2)cc1 [(43), Phenyl N-(4-chlorophenyl)-3-(phenoxy)acrylimidate] | 3 (mortality 80 to 99%) | 3 (mortality 80 to 99%) |  | 3 (mortality 70 to 99%) | 4 (mortality 100%) | 4 (mortality 91 to 100%) | 3 (mortality 80 to 99%) | 3 (mortality 90 to 99%) | 3 (surviving rate 1 to 10%) |  | 
3 | Clc1cccc(N=C(C=COc2ccccc2)Oc2ccccc2)c1 [(45), Phenyl N-(3-chlorophenyl)-3-(phenoxy)acrylimidate] | 3 (mortality 80 to 99%) | 3 (mortality 80 to 99%) | 3 (surviving rate 1 to 10%) |  | 4 (mortality 100%) | 4 (mortality 91 to 100%) | 3 (mortality 80 to 99%) | 3 (mortality 90 to 99%) | 3 (surviving rate 1 to 10%) |  | 
4 | COc1ccc(N=C(C=CSc2ccccc2)Oc2ccccc2)cc1 [(46), Phenyl N-(4-methoxyphenyl)-3-(phenylthio)acrylimidate] | 3 (mortality 80 to 99%) | 3 (mortality 80 to 99%) | 3 (surviving rate 1 to 10%) | 3 (mortality 70 to 99%) | 4 (mortality 100%) | 4 (mortality 91 to 100%) | 3 (mortality 80 to 99%) | 3 (mortality 90 to 99%) |  |  | 
5 | Fc1ccc(N=C(C=CSc2ccccc2)Oc2ccccc2)cc1 [(50), Phenyl N-(4-fluorophenyl)-3-(phenylthio)acrylimidate] | 3 (mortality 80 to 99%) | 3 (mortality 80 to 99%) |  | 3 (mortality 70 to 99%) | 4 (mortality 100%) | 4 (mortality 91 to 100%) | 3 (mortality 80 to 99%) | 3 (mortality 90 to 99%) | 3 (surviving rate 1 to 10%) |  | 
6 | Cc1ccc(N=C(C=COc2ccccc2)Oc2ccccc2)cc1 [(56), Phenyl N-(4-methylphenyl)-3-(phenoxy)acrylimidate] | 3 (mortality 80 to 99%) | 3 (mortality 80 to 99%) |  | 3 (mortality 70 to 99%) |  | 4 (mortality 91 to 100%) | 3 (mortality 80 to 99%) | 3 (mortality 90 to 99%) | 3 (surviving rate 1 to 10%) |  | 
7 | Clc1ccccc1N=C(C=COc1ccccc1)Oc1ccccc1 [(58), Phenyl N-(2-chlorophenyl)-3-(phenoxy)acrylimidate] | 3 (mortality 80 to 99%) | 3 (mortality 80 to 99%) |  | 3 (mortality 70 to 99%) | 4 (mortality 100%) | 4 (mortality 91 to 100%) |  | 3 (mortality 90 to 99%) | 3 (surviving rate 1 to 10%) |  | 
8 | Clc1ccc(N=C(C=COc2ccccc2)Oc2ccccc2)cc1Cl [(59), Phenyl N-(3,4-dichlorophenyl)-3-(phenoxy)acrylimidate] | 3 (mortality 80 to 99%) | 3 (mortality 80 to 99%) |  | 3 (mortality 70 to 99%) |  | 4 (mortality 91 to 100%) | 3 (mortality 80 to 99%) | 3 (mortality 90 to 99%) | 3 (surviving rate 1 to 10%) |  | 
9 | C(=CC(=Nc1ccc2c(c1)CCC2)Oc1ccccc1)Oc1ccccc1 [(81), Phenyl N-(indan-5-yl)-3-(phenoxy)acrylimidate] | 3 (mortality 80 to 99%) | 3 (mortality 80 to 99%) | 3 (surviving rate 1 to 10%) | 3 (mortality 70 to 99%) |  | 4 (mortality 91 to 100%) | 3 (mortality 80 to 99%) | 3 (mortality 90 to 99%) | 3 (surviving rate 1 to 10%) |  | 
10 | Cc1cccc(SC=CC(=Nc2ccccc2)Oc2ccccc2)c1 [(106), Phenyl 3-(3-methylphenylthio)-N-phenylacrylimidate] | 3 (mortality 80 to 99%) | 3 (mortality 80 to 99%) | 3 (surviving rate 1 to 10%) | 3 (mortality 70 to 99%) | 4 (mortality 100%) | 4 (mortality 91 to 100%) | 3 (mortality 80 to 99%) | 3 (mortality 90 to 99%) |  |  | 
11 | FC(F)(F)c1cccc(SC=CC(=Nc2ccccc2)Oc2ccccc2)c1 [(111), Phenyl N-phenyl-3-(3-trifluoromethylphenylthio)acrylimidate] | 3 (mortality 80 to 99%) | 3 (mortality 80 to 99%) | 3 (surviving rate 1 to 10%) | 3 (mortality 70 to 99%) | 4 (mortality 100%) | 4 (mortality 91 to 100%) | 3 (mortality 80 to 99%) | 3 (mortality 90 to 99%) |  |  | 
12 | CC(C)SC(C=CSc1ccccc1)=Nc1ccccc1 [(174), 1-Methylethyl N-phenyl-3-(phenylthio)thioacrylimidate] | 3 (mortality 80 to 99%) |  | 3 (surviving rate 1 to 10%) | 3 (mortality 70 to 99%) | 4 (mortality 100%) | 4 (mortality 91 to 100%) | 3 (mortality 80 to 99%) | 3 (mortality 90 to 99%) | 3 (surviving rate 1 to 10%) |  | 
13 | Cc1cccc(OC(C=COc2ccc3c(c2)OCO3)=Nc2ccc(C)c(C)c2)c1 [(302), 3-Methylphenyl N-(3,4-dimethylphenyl)-3-(6-benzo[1,3]dioxolyloxy)acrylimidate] |  |  |  |  |  |  |  | 3 (mortality 90 to 99%) | 3 (surviving rate 1 to 10%) |  | 
14 | CCC(C)SC(C=CSc1ccccc1)=Nc1ccc(C)cc1 (stereo not shown) [(324), 1-Methylpropyl N-(4-methylphenyl)-3-(phenylthio)thioacrylimidate] | 3 (mortality 80 to 99%) |  | 3 (surviving rate 1 to 10%) | 3 (mortality 70 to 99%) | 4 (mortality 100%) |  | 3 (mortality 80 to 99%) | 3 (mortality 90 to 99%) | 3 (surviving rate 1 to 10%) |  | 
15 | Cc1ccc(N=C(C=CSc2ccccc2)SC2CCCC2)cc1 [(333), Cyclopentyl N-(4-methylphenyl)-3-(phenylthio)thioacrylimidate] |  |  |  |  | 4 (mortality 100%) |  |  |  | 3 (surviving rate 1 to 10%) | 3 (mortality 90 to 99%) | 
16 | Cc1ccc(N=C(C=CSc2ccccn2)SCC2CCCCC2)cc1 [(368), Cyclohexylmethyl N-(4-methylphenyl)-3-(2-pyridylthio)-thioacrylimidate] |  |  |  |  |  |  |  |  | 3 (surviving rate 1 to 10%) |  | 3 (mortality 90 to 99%)
17 | CC(C)=CCSC(C=CSc1ccccc1)=Nc1ccc(C)cc1 [(388), 3-Methyl-2-butenyl N-(4-methylphenyl)-3-(phenylthio)thioacrylimidate] |  |  | 3 (surviving rate 1 to 10%) |  | 4 (mortality 100%) | 4 (mortality 91 to 100%) |  | 3 (mortality 90 to 99%) | 3 (surviving rate 1 to 10%) |  | 
18 | Cc1ccc(N=C(C=CSc2ccc(F)cc2)SCC2CCCCC2)cc1 [(482), Cyclohexylmethyl 3-(4-fluorophenylthio)-N-(4-methylphenyl)thioacrylimidate] |  |  |  | 3 (mortality 70 to 99%) |  |  |  | 3 (mortality 90 to 99%) | 3 (surviving rate 1 to 10%) |  | 
